Assay results from the supplement of paper PMC12823440, “Inhibitors supercharge kinase turnover through native proteolytic circuits” (Nature, 2025).
This is one part of the list. Hit calls seldom repeat between salt and free forms of one compound.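 In K562 cells expressing nanoluciferase-fused kinases, luminescence was recorded at 4 h intervals between 2 and 18 h, normalized as percent of control with DMSO at 100% and a positive control at 0%. A significant (2 sigma) signal drop marks a time point as decreased. The authors' rule for a hit is not shown and takes in more than the number of time points.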

By UniProt entry, the sequences of proteins in these tests, tags left out. Where a name states a change or a piece, a line headed by the entry shows the natural chain unless it says otherwise.
UniProt Q9UM73: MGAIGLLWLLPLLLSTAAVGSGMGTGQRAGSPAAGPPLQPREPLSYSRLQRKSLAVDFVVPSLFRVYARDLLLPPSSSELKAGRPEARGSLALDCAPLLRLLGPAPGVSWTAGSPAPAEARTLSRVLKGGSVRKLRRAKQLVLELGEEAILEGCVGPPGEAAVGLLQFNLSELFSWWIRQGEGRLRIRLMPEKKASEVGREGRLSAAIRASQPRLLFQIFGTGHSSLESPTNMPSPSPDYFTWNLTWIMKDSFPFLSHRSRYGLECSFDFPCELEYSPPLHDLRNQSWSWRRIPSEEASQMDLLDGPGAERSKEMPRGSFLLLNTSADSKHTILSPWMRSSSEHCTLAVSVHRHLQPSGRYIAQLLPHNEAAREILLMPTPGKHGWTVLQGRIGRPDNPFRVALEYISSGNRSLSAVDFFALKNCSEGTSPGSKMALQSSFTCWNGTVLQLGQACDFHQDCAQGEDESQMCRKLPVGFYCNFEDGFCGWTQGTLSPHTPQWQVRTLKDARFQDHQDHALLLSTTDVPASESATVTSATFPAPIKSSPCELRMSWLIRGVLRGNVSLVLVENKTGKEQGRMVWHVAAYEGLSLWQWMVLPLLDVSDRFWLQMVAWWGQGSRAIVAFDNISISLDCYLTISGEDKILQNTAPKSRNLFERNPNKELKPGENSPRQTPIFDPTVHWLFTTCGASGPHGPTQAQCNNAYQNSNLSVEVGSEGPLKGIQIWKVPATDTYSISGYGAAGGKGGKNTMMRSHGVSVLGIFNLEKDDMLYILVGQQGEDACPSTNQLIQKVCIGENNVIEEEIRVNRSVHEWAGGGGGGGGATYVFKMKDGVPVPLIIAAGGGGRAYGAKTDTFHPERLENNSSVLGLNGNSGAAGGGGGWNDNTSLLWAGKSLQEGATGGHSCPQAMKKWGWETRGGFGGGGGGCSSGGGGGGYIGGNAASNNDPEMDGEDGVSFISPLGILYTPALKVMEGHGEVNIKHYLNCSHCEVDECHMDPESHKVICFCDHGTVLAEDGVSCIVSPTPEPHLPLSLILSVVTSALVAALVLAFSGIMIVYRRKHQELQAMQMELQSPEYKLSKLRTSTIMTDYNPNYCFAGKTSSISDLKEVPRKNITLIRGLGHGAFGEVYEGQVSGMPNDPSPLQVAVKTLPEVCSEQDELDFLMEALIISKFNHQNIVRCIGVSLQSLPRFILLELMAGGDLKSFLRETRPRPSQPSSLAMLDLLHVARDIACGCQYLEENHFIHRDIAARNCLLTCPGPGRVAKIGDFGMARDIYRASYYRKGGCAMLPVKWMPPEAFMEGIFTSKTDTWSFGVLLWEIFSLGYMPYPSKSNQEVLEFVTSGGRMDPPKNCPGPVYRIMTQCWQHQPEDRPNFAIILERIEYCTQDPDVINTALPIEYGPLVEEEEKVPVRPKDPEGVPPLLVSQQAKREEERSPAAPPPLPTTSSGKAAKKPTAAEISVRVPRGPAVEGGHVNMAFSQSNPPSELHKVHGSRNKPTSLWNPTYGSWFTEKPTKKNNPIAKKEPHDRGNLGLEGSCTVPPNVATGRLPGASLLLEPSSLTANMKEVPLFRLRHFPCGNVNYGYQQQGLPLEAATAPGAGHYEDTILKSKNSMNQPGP
UniProt O14965: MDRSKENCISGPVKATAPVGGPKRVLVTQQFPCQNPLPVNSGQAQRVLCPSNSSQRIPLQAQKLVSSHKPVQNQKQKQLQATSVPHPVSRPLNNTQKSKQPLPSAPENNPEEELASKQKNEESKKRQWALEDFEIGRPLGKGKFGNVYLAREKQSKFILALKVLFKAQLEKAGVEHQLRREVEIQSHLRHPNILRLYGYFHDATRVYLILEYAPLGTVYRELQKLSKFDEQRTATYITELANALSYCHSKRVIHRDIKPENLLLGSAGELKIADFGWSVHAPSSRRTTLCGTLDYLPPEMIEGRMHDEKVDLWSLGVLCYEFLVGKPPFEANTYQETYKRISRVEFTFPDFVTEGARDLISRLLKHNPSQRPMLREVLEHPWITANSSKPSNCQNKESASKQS
UniProt Q96GD4, whole entry: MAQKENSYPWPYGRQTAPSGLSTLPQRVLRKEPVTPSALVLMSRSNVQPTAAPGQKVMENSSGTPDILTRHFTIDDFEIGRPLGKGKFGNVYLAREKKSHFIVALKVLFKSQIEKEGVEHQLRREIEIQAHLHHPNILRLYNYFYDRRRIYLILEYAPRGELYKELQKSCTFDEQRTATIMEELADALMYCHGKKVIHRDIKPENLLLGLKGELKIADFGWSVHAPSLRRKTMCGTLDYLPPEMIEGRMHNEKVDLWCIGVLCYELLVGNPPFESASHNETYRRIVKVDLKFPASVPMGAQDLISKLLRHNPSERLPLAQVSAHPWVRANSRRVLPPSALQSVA
UniProt P51813: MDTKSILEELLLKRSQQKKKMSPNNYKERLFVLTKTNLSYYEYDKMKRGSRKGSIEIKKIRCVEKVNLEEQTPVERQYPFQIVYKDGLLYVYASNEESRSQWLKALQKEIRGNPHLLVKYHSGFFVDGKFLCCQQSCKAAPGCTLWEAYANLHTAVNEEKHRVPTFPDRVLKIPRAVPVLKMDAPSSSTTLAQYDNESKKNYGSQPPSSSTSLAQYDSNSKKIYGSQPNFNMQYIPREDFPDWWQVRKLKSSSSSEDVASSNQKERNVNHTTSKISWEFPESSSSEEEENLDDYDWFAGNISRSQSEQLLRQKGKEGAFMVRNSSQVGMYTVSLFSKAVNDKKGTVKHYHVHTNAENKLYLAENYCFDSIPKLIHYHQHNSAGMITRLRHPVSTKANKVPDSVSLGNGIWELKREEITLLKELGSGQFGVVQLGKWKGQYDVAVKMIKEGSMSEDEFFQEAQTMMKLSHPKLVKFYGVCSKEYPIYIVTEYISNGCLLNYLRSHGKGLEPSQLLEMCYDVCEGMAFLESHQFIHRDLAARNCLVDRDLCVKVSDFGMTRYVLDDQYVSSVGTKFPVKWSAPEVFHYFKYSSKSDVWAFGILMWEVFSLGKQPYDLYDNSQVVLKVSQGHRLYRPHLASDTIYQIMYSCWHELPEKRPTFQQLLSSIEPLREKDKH
UniProt P15056, whole entry, looked up: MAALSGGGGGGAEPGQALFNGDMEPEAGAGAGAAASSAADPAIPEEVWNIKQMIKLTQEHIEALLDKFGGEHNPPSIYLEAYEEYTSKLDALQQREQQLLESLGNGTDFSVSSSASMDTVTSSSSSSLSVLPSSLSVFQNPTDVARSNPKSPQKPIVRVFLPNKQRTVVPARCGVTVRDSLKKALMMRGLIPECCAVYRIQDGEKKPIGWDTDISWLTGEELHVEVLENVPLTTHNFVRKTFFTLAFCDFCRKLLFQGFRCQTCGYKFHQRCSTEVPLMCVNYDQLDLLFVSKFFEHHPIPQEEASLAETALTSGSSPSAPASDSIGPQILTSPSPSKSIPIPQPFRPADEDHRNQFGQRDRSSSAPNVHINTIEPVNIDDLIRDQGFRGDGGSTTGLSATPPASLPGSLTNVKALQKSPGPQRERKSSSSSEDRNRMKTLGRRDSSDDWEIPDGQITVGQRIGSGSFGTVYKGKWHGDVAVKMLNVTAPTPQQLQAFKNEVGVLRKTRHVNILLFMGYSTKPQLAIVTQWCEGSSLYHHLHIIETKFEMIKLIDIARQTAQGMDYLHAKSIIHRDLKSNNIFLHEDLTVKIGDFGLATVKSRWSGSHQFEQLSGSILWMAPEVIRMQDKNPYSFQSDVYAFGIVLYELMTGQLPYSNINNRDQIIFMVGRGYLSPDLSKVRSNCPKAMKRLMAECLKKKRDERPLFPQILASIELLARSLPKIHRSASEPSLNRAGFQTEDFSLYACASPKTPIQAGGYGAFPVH
UniProt Q06187: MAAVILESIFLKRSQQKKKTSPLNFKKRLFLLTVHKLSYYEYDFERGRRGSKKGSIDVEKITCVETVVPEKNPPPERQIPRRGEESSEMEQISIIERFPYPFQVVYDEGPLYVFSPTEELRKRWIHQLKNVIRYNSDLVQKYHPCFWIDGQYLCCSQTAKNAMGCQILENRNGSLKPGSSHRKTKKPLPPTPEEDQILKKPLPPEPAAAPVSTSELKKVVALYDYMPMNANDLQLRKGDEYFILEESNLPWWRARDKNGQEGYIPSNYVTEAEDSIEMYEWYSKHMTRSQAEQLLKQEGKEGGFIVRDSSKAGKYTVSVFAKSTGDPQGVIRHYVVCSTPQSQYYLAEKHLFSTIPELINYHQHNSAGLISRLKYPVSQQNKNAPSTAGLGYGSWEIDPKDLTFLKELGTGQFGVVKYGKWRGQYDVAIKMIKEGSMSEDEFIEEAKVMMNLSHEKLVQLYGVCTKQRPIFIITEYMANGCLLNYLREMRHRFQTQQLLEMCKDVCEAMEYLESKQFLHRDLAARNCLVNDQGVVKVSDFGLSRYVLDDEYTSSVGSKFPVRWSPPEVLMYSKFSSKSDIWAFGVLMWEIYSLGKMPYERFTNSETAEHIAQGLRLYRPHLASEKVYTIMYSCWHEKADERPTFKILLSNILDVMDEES
UniProt O96017, whole entry: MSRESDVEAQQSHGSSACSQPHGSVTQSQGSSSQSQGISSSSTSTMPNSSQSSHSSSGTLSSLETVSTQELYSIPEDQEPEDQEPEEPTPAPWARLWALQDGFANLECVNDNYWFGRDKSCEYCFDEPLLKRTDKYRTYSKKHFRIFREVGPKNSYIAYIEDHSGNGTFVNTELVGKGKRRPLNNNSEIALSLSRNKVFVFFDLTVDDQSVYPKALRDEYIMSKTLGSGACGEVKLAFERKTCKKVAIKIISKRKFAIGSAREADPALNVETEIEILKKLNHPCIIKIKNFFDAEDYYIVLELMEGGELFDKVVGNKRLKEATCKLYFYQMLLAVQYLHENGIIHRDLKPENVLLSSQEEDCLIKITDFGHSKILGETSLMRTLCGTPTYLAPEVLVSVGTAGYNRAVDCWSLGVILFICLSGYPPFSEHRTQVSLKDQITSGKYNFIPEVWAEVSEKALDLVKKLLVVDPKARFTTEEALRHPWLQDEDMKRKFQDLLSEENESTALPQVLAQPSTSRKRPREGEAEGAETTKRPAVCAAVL
UniProt P07333, whole entry: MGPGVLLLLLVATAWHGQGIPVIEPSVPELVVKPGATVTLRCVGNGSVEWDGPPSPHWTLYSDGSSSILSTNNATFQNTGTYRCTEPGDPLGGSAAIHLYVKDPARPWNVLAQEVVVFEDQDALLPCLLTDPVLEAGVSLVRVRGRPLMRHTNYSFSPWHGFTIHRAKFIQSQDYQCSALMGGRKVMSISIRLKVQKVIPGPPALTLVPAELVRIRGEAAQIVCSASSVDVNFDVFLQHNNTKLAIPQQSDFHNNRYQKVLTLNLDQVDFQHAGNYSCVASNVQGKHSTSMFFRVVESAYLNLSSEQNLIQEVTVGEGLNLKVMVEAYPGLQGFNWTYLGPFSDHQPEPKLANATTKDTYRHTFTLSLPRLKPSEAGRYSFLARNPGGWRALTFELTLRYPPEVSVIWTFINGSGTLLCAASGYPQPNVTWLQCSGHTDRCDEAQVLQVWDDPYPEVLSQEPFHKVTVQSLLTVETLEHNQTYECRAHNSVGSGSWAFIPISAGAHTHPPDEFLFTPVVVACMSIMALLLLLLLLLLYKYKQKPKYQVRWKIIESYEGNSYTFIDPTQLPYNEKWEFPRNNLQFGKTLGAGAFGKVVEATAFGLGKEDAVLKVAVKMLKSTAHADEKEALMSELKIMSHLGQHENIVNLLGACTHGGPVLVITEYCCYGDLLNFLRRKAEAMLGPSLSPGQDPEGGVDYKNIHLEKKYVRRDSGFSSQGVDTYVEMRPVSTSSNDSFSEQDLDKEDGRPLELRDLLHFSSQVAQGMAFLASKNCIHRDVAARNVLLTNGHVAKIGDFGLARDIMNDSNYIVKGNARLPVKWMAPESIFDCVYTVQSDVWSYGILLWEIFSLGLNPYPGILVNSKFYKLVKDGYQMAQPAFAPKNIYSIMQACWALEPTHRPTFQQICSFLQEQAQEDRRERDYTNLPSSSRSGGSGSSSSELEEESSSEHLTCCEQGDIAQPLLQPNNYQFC
UniProt P41240: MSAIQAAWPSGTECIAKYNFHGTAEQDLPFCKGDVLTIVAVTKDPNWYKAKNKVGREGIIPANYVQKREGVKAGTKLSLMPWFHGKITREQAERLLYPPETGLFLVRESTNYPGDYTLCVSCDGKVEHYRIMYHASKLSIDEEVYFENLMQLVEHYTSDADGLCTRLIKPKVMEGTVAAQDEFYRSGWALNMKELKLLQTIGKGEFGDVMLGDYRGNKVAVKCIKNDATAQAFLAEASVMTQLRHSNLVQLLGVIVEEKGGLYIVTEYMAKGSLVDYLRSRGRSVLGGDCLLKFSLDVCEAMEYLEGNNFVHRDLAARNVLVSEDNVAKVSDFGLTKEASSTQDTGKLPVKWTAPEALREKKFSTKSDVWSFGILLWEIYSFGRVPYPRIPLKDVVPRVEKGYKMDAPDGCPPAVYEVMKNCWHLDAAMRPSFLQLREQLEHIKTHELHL

How the values were obtained:
Test in all cases: number of time points (of 5) at which kinase-Nluc abundance scored as decreased, DMSO-normalised (count); higher = more persistent destabilization
Details in all cases: K562; 2-18 h
ALK = ALK (UniProt Q9UM73)
ARAF = ARAF (UniProt P10398)
AURKA = AURKA (UniProt O14965)
AURKB = AURKB (UniProt Q96GD4)
AURKC = AURKC (UniProt Q9UQB9)
BLK = BLK (UniProt P51451)
BMX = BMX (UniProt P51813)
BRAF = BRAF (UniProt P15056)
BRAF_V600E = tested on: BRAF_V600E
BTK = BTK (UniProt Q06187)
CAMK2A = CAMK2A (UniProt Q9UQM7)
CAMK2G = CAMK2G (UniProt Q13555)
CDK10 = CDK10 (UniProt Q15131)
CDK2 = CDK2 (UniProt P24941)
CDK3 = CDK3 (UniProt Q00526)
CDK5 = CDK5 (UniProt Q00535)
CDK6 = CDK6 (UniProt Q00534)
CHEK2 = CHEK2 (UniProt O96017)
CSF1R = CSF1R (UniProt P07333)
CSK = CSK (UniProt P41240)

Measured: number of time points

COc1cc(N2CCC(N3CCN(C)CC3)CC2)ccc1Nc1ncc(Cl)c(Nc2ccccc2P(C)(C)=O)n1 [Brigatinib] (2 µM)
3: BRAF_V600E
0: ALK | ARAF | AURKA | AURKB | AURKC | BLK | BMX | BRAF | BTK | CAMK2A | CAMK2G | CDK10 | CDK2 | CDK3 | CDK5 | CDK6 | CHEK2 | CSF1R | CSK

COc1cc2ncn(-c3cc(OCc4ccccc4S(C)(=O)=O)c(C#N)s3)c2cc1OC (10 µM)
0: ALK | ARAF | AURKA | AURKB | AURKC | BLK | BMX | BRAF | BRAF_V600E | BTK | CAMK2A | CAMK2G | CDK10 | CDK2 | CDK3 | CDK5 | CDK6 | CHEK2 | CSF1R | CSK

OC[C@H]1O[C@@H](Oc2cc3c(O)cc(O)cc3[o+]c2-c2cc(O)c(O)c(O)c2)[C@H](O)[C@@H](O)[C@@H]1O [Delphinidin 3-glucoside (chloride)] (10 µM)
0: ALK | ARAF | AURKA | AURKB | AURKC | BLK | BMX | BRAF | BRAF_V600E | BTK | CAMK2A | CAMK2G | CDK10 | CDK2 | CDK3 | CDK5 | CDK6 | CHEK2 | CSF1R | CSK

2 entries drawn at random from the list so far, as already listed:
COc1cc2ncn(-c3cc(OCc4ccccc4S(C)(=O)=O)c(C#N)s3)c2cc1OC (10 µM)
0: ALK | ARAF | AURKA | AURKB | AURKC | BLK | BMX | BRAF | BRAF_V600E | BTK | CAMK2A | CAMK2G | CDK10 | CDK2 | CDK3 | CDK5 | CDK6 | CHEK2 | CSF1R | CSK

OC[C@H]1O[C@@H](Oc2cc3c(O)cc(O)cc3[o+]c2-c2cc(O)c(O)c(O)c2)[C@H](O)[C@@H](O)[C@@H]1O [Delphinidin 3-glucoside (chloride)] (10 µM)
0: ALK | ARAF | AURKA | AURKB | AURKC | BLK | BMX | BRAF | BRAF_V600E | BTK | CAMK2A | CAMK2G | CDK10 | CDK2 | CDK3 | CDK5 | CDK6 | CHEK2 | CSF1R | CSK

More structures

CN1C(=O)C(Cc2c[nH]c3ccccc23)NC1=S (stereo not given) [Necrostatin-1] (10 µM)
0: ALK | ARAF | AURKA | AURKB | AURKC | BLK | BMX | BRAF | BRAF_V600E | BTK | CAMK2A | CAMK2G | CDK10 | CDK2 | CDK3 | CDK5 | CDK6 | CHEK2 | CSF1R | CSK

c1cn2cc(-c3ccc4cn[nH]c4c3)nc(Nc3ccc(N4CCOCC4)cc3)c2n1 [Entospletinib] (10 µM)
0: ALK | ARAF | AURKA | AURKB | AURKC | BLK | BMX | BRAF | BRAF_V600E | BTK | CAMK2A | CAMK2G | CDK10 | CDK2 | CDK3 | CDK5 | CDK6 | CHEK2 | CSF1R | CSK

Cc1ccc(S(=O)(=O)Nc2ccccc2C=Nc2ccccc2NS(=O)(=O)c2ccc(C)cc2)cc1 (10 µM)
0: ALK | ARAF | AURKA | AURKB | AURKC | BLK | BMX | BRAF | BRAF_V600E | BTK | CAMK2A | CAMK2G | CDK10 | CDK2 | CDK3 | CDK5 | CDK6 | CHEK2 | CSF1R | CSK

O=C1NC(=O)C(=Cc2ccc(-c3ccc(F)cc3)o2)S1 (stereo in doubt) (10 µM)
0: ALK | ARAF | AURKA | AURKB | AURKC | BLK | BMX | BRAF | BRAF_V600E | BTK | CAMK2A | CAMK2G | CDK10 | CDK2 | CDK3 | CDK5 | CDK6 | CHEK2 | CSF1R | CSK

COc1ccc2c(c1O)OC(C)(C)c1c-2ccc2c1C(=O)N(c1ccc(C(=O)c3ccccc3)cc1)C2=O [Ampkinone] (10 µM)
0: ALK | ARAF | AURKA | AURKB | AURKC | BMX | BRAF | BRAF_V600E | BTK | CAMK2A | CAMK2G | CDK10 | CDK2 | CDK3 | CDK5 | CDK6 | CHEK2 | CSF1R | CSK
3: BLK

C[C@]1(O)CCC[C@@H]1n1c(=O)c(C(F)F)cc2cnc(NC3CCN(S(C)(=O)=O)CC3)nc21 (10 µM)
0: ALK | ARAF | AURKA | AURKB | AURKC | BLK | BMX | BRAF | BRAF_V600E | BTK | CAMK2A | CAMK2G | CDK10 | CDK2 | CDK3 | CDK5 | CDK6 | CHEK2 | CSF1R | CSK

CC(C)=CC[C@H](O)C1=CC(=O)c2c(O)ccc(O)c2C1=O [(-)-Alkannin] (2.5 µM)
0: ALK | ARAF | AURKA | AURKB | AURKC | BLK | BMX | BRAF | BRAF_V600E | BTK | CAMK2A | CAMK2G | CDK10 | CDK2 | CDK3 | CDK5 | CDK6 | CHEK2 | CSF1R | CSK

Cc1cc(O)c(C(C)C)cc1N=O [Poloxime] (10 µM)
0: ALK | ARAF | AURKA | AURKB | AURKC | BLK | BMX | BRAF | BRAF_V600E | BTK | CAMK2A | CAMK2G | CDK10 | CDK2 | CDK3 | CDK5 | CDK6 | CHEK2 | CSF1R | CSK

COc1cc2ncnc(Nc3cccc(Cl)c3)c2cc1OC (10 µM)
0: ALK | ARAF | AURKA | AURKB | AURKC | BLK | BMX | BRAF | BRAF_V600E | BTK | CAMK2A | CAMK2G | CDK10 | CDK2 | CDK3 | CDK5 | CDK6 | CHEK2 | CSF1R | CSK

COc1cc(S(C)(=O)=O)ccc1Nc1nc2ccc(-c3ccc(NC(=O)[C@H](C)c4ccc(F)cc4)cc3)cn2n1 [Empesertib] (10 µM)
0: ALK | ARAF | AURKA | AURKB | AURKC | BLK | BMX | BRAF | BRAF_V600E | BTK | CAMK2A | CAMK2G | CDK10 | CDK2 | CDK3 | CDK5 | CDK6 | CHEK2 | CSF1R | CSK

O=C1c2ccc(Nc3ccc(F)cc3F)cc2CCc2ccc(OC[C@H](O)CO)cc21 [Skepinone-L] (2.5 µM)
0: ALK | ARAF | AURKA | AURKB | AURKC | BLK | BMX | BRAF | BRAF_V600E | BTK | CAMK2A | CAMK2G | CDK10 | CDK2 | CDK3 | CDK5 | CDK6 | CHEK2 | CSF1R | CSK

CC(C)(C)NC(=O)c1cncn1C1CCN(c2ccc(-c3nnc(C(F)(F)F)o3)cn2)CC1 (10 µM)
0: ALK | ARAF | AURKA | AURKB | AURKC | BLK | BMX | BRAF | BRAF_V600E | BTK | CAMK2A | CAMK2G | CDK10 | CDK2 | CDK3 | CDK5 | CDK6 | CHEK2 | CSF1R | CSK

CC[C@@]1(c2ccccc2)C2=C(CC(C)(C)CC2=O)Nc2[nH]ncc21 (10 µM)
0: ALK | ARAF | AURKA | AURKB | AURKC | BLK | BMX | BRAF | BRAF_V600E | BTK | CAMK2A | CAMK2G | CDK10 | CDK2 | CDK3 | CDK5 | CDK6 | CHEK2 | CSF1R | CSK
